Experimental data: paper PMC8595342
Positions count from the first letter of the chain named. Results are given in words; binding and its absence hold for the method and conditions named. In cells and extracts the contact can be indirect. Some results given as binding are weak or reduced against the parent protein; the word gives no strength. Sequences can lack the tags named with a protein. Values belong to the molecule of their own block, whether it stands above or below them.

Assays:
Assay in all cases: co-IP; Flag beads on lysates of transfected HEK293T cells (cell line of Supplemental Fig. 4 not shown); TAP lysis buffer (20 mM Tris-HCl pH 7.4, 0.5% NP40, 150 mM NaCl, 1 mM NaF, 1 mM Na3VO4, 1 mM EDTA), 5 h at 4 °C; immunoblot; full medium, in some panels also Torin or EBSS, siSCFD1, co-expressed HA-SCFD1 or Myc-mTOR
[1] = target: T1, Flag-VAMP8^S55A, expressed in HEK293T cells (UniProt Q9BV40)
T1 sequence: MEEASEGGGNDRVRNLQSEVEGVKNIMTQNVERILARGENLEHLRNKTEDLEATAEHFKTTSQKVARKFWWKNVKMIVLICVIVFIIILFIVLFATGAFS

[2] = target: T2, Flag-VAMP8^T48A, expressed in HEK293T cells (UniProt Q9BV40)
T2 sequence: T1 sequence with T48A, A55S

[3] = target: T3, Flag-VAMP8 (wild type), expressed in HEK293T cells, Q9BV40; settings: remark: other sources report otherwise
T3 chain: T1 sequence with A55S

binding [1]: binds | binding [2]: binds
Molecule: endogenous STX17 (Syntaxin 17) (from UniProt P56962 1-302)

binding [3]: binds
B1: endogenous STX17 (Syntaxin 17), P56962 1-302 (protein)
chain: MSEDEEKVKLRRLEPAIQKFIKIVIPTDLERLRKHQINIEKYQRCRIWDKLHEEHINAGRTVQQLRSNIREIEKLCLKVRKDDLVLLKRMIDPVKEEASAATAEFLQLHLESVEELKKQFNDEETLLQPPLTRSMTVGGAFHTTEAEASSQSLTQIYALPEIPQDQNAAESWETLEADLIELSQLVTDFSLLVNSQQEKIDSIADHVNSAAVNVEEGTKNLGKAAKYKLAALPVAGALIGGMVGGPIGLLAGFKVAGIAAALGGGVLGFTGGKLIQRKKQKMMEKLTSSCPDLPSQTDKKCS
